Data reported in patent US11897856B1, “N-(Naphthalen-1-ylcarbamothioyl)furan-2-carboxamide as an eco-friendly insecticidal agent against Spodoptera littoralis (boisd.)” (KING FAISAL UNIVERSITY, priority 2023, dated 2024).

System: Spodoptera littoralis
Assay: Insecticidal bioassay screening (castor leaf dip, larval mortality)
Format: in vivo
Details: after 72 hrs of treatment, slope of concentration-mortality (LDP) line
Procedure: Five concentrations (200, 100, 50, 25, 12.5 ppm) were designed for this synthetic compound and the reference Diflubenzuron compound as the dynamic ingredients based on ppm via diluting the commercial formulation.
In this experiment, castor leaves are immersed in each of the previously prepared concentrations of the components for 10 seconds and then left to dry for 60 minutes. Larvae of the second and fourth instars of each checked strain are prepared with treated leaves in gauze-covered glass containers for 72 hrs. An untreated control is made in which leaves are dipped in triton x-100 and distilled water only. Then the preserved leaves were removed & fresh, untreated leaves were provided for 72 hours. Three replicates (10 larvae each) were checked for each concentration. Daily inspection was carried out for all treatments and mortality percentages were recorded 3 days (72 hours) after treatment. The average mortality percentage was corrected employing Abbott's formula. The corrected mortality rate for each of the previously synthesized compounds is statistically calculated according to Finney (1970). Through this rate, the corresponding concentration test lines (LDP lines) are assessed.

## O=C(NC(=S)Nc1cccc2ccccc12)c1ccco1 [Compound 2, N-(Naphthalen-1-ylcarbamothioyl)furan-2-carboxamide]
2nd instar larvae
  Slope: 0.97 ± 0.35
4th instar larvae
  Slope: 0.713 ± 0.39
